Measurements reported in publication PMC11527973, “Efficient characterization of multiple binding sites of small molecule imaging ligands on amyloid-beta, tau and alpha-synuclein” (European Journal of Nuclear Medicine and Molecular Imaging, 2024).

System: Aβ deposits (6E10 positive)
Experiment: Immunofluorescence staining and colocalization, arcAβ mouse brain
Conditions: for M1, fraction of A overlapping B / M2, fraction of B overlapping A: Manders' coefficient, arcAβ mouse, antibody (A) 6E10, ligand (B); for Ligand detection of Aβ deposits: arcAβ mice, cortical regions, costained with 6E10

In the case of O=C(O)Cc1cc(-c2ccc(-c3cc(CC(=O)O)c(-c4ccc(C(=O)O)s4)s3)s2)sc1-c1ccc(C(=O)O)s1 [HS-84], the “M1, fraction of A overlapping B” value is reported as 0.607 and the “M2, fraction of B overlapping A” value is reported as 0.6.
O=C(O)Cc1cc(-c2ccc(-c3cc(CC(=O)O)c(-c4ccc(C(=O)O)s4)s3)c3nsnc23)sc1-c1ccc(C(=O)O)s1 [HS-169] was tested, and the “M1, fraction of A overlapping B” value was 0.658, the “M2, fraction of B overlapping A” value was 0.462 and the “Ligand detection of Aβ deposits” value was “confirmed the detection of parenchymal Aβ deposits”.
O=C(O)Cc1cc(-c2ccc(-c3ccc(C(=O)O)s3)s2)sc1-c1ccc(-c2sc(-c3ccc(-c4ccc(C(=O)O)s4)s3)cc2CC(=O)O)s1 [h-FTAA, Hepta-formylthiophene acetic acid] was tested, and the “M1, fraction of A overlapping B” value was 0.553, the “M2, fraction of B overlapping A” value was 0.425 and the “Ligand detection of Aβ deposits” value was “confirmed the detection of parenchymal Aβ deposits”.

Some compounds share one wording; it may come from a single statement.
